In patent US20220002403A1:
Results are given in words; binding and its absence hold for the method and conditions named. Some results given as binding are weak or reduced against the parent protein; the word gives no strength.

Chains of the proteins cited; added tags and fusions are not shown. Lines headed by an entry give the natural chain unless they say otherwise; changes in a name come on top.
UniProt Q8N423: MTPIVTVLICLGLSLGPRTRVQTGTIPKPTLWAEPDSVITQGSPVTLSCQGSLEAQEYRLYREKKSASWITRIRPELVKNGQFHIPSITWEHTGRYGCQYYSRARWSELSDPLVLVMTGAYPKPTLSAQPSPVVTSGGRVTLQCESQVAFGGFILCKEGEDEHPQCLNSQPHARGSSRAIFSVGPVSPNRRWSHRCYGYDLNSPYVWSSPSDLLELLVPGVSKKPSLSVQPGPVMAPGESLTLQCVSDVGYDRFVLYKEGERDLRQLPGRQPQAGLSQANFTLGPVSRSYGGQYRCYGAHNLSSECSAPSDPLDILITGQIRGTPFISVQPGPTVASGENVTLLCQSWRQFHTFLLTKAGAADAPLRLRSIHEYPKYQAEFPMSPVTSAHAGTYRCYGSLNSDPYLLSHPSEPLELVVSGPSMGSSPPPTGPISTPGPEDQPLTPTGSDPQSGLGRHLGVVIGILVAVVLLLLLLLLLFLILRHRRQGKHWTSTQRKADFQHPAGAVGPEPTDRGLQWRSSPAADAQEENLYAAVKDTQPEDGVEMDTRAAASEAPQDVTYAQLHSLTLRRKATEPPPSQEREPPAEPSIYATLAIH

Columns and labels:
[1] = molecular target: endogenous human ILT4 on primary human cells (PBMC; tumor histoculture myeloid cells) (human) (UniProt Q8N423); assay: FACS of tumor histoculture cell suspensions
[2] = molecular target: endogenous human ILT4 on primary human cells (PBMC; tumor histoculture myeloid cells) (human) (UniProt Q8N423); assay: FACS of RCC and CRC tumor histoculture cell suspensions; surface-bound 1E1(G4) detected with an anti-IgG4 secondary antibody
[3] = molecular target: human ILT4 haplotype 10 expressed on mouse 3A9 T cells (human) (UniProt Q8N423); assay: flow cytometry on 3A9 T cells expressing ILT4 allelic variants, 10 ug/mL antibody
[4] = molecular target: human ILT4 haplotype 9 expressed on mouse 3A9 T cells (human) (UniProt Q8N423); assay: as above
[5] = molecular target: human ILT4 haplotype 7 expressed on mouse 3A9 T cells (human) (UniProt Q8N423); assay: as above

Measured: binding

B1: 1E1(G4) (antibody, human IgG4 S228P, lambda, V domains shown)
VH: EVQLQQWGAGLLKPSETLSLTCAVYGGSFSGYYWSWIRQPPGKGLEWIGEINHAGSTNYNPSLKSRVTISVDTSKNQFSLKLSSVTAADTAVYYCARLPTRWVTTRYFDLWGRGTLVTVSS
VL: ESVLTQPPSVSGAPGQRVTISCTGSSSNIGAGYDVHWYQQLPGTAPKLLIYGDSNRPSGVPDRFSVSKSGASASLAITGLQAEDEADYYCQSFDNSLSAYVFGGGTQLTVLG
binds: all assays above
